Results published in PMC2904708.
These are yes or no findings as the source states them, for the method shown. Binding seen in cells or lysates may run through a third protein. Some entries that bind do so weakly or less than the wild type.

Molecular target: T1, Barx2 (UniProt O08686)
T1 sequence: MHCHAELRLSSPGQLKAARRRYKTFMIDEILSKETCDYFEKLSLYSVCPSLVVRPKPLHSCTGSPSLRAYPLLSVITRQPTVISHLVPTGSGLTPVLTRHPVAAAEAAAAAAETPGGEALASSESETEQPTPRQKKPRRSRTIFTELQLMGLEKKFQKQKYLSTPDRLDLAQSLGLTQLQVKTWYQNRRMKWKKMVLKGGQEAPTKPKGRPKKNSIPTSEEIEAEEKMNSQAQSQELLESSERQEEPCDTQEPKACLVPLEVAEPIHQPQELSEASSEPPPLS
Assay: co-IP; COS1 or C2C12 cells co-transfected with Barx2/pcDNA3 and Hes6/pCMVSport6; lysates 48 h after transfection, pre-cleared with Protein A-Sepharose, incubated overnight at 4°C with 5 µg anti-Barx2 rabbit antibody or preimmune serum; precipitated with Protein A-Sepharose, washed four times, immunoblotted with anti-Hes6 goat antibody

binding: binds
B1: Hes6 (protein, UniProt Q9JHE6 1-224)
chain: MAPSQAPSRDRAGQEDEDRWEARGDRKARKPLVEKKRRARINESLQELRLLLAGTEVQAKLENAEVLELTVRRVQGALRGRAREREQLQAEASERFAAGYIQCMHEVHTFVSTCQAIDATVSAELLNHLLESMPLREGSSFQDLLGDSLAGLPGGSGRSSWPPGGSPESPLSSPPGPGDDLCSDLEEIPEAELNRVPAEGPDLVSTSLGSLTAARRAQSVWRPW
